Test results reported in patent US6015877A, “Compounds for inhibition of proteolysis” (President and Fellows of Harvard College, priority 1996, dated 2000).
For at least one compound, name, drawing or mass did not settle the structure.

Tested on: isoprenylated protein endoprotease
Assay: Inhibition of the isoprenylated protein endoprotease by halomethyl ketones (preincubation, 20-fold dilution, Kitz-Wilson)
Format: biochemical, bovine
Details: as printed in b300 (FIG. 16A)
Protocol: A typical procedure of inhibition is given here to illustrate the details of this procedure. A CHAPSO-solubilized protein preparation (2.5 mg/mL) or a partially […] protein preparation (0.17 mg/mL) was incubated with chloromethyl ketone inhibitors at 37° C. for 30 minutes. Aliquots were removed at timed intervals and diluted with assay buffer E for the solubilized preparation of with assay buffer D for the partially purified protein preparation in 20-fold. The final protein and substrate concentrations were 0.12 mg/mL (or 8.5 μg of partially purified protein preparation per milliliter) and 2.0 μM, respectively, except as otherwise noted; the residual enzyme activity was assayed as described above. TPCK and BFC-CMK were characterized by kinetic measurements. The bimolecular rate constant Kinh /K1 and pseudo-first-order kinetic rate constant Kinh were obtained using the Kitz-Wilson method (Kitz & Wilson, 1962). According to Kitz-Wilson method, the irreversible modification of an enzyme by an active-site directed inhibitor is given by [drawing 9] where K1 =[E]·[I]/[E·I] and -d([E]+[E·I])/dt=Kinh [E·I]. [I] and [E] are inhibitor and enzyme concentrations at a certain time, respectively. Under conditions here [I]>>[Eo ], which is the enzyme concentration at time zero, [I] is constant. […]

## Cc1ccc(S(=O)(=O)N[C@@H](Cc2ccccc2)C(=O)CCl)cc1 [TPCK, Nα-tosyl-L-phenylalamine chloromethyl ketone]
  Kinh K1: 77/±0.6)×10^-3 S^-1
